Measured values: patent US20220049002A1
Results are given in words; binding and its absence hold for the method and conditions named. Some binding calls cover weakened binding; strength is not graded here.

B1: M9 mouse monoclonal antibody (anti-canine IL4R) (antibody, V domains shown)
VH: DVQLVESGGGLVQPGGSRKLSCAASGFTFSSFGMHWVRQAPEKGLEWVAYIRSDSSTIYYADTVKGRFTISRDNPKNTLFLQMTSLRSEDTAMYYCARSGYYGSFSLTYWGQGTLVTVSA
VL: EIVLTQSPTTMAASPGEKITITCSASSSVSSNYLHWYQQKPGFSPKLLIYRTSNLPSGVPARFFGSGSGTSYSLTIGTMEAEDVATYYCQQGSGMLTFGAGTKLELK
B2: M3 mouse monoclonal antibody (anti-canine IL4R) (antibody, V domains shown)
VH: QVQLKESGPGLVAPSQSLSITCTVSGFSLSRYSVHWVRQPPGKGLEWLGMIWGGGSTDYNSVFKSRLSISKDNSKSQVFLKMNSLQTDDTAMYYCARTYRGYALDYWGQGTSVTVSS
VL: DIQMTQTTSSLSASLGDRVTISCRASQDISNYLNWYQQKPDGTVKLLIYYTSRLQSGVPSRFSGSGSGTDYCLTISNLEQEDIATYFCQQANTLPLTFGSGTKLELK
B3: M5 mouse monoclonal antibody (anti-canine IL4R) (antibody, V domains shown)
VH: QVQLKESGPGLVAPSQSLSITCTVSGFSLSRYSVHWVRQPPGKGLEWLGMIWGGGSTDYNSVFKSRLSISKDNSKSQVFLKMNSLQTDDTAMYYCARTYRGYALDYWGQGTSVTVSS
VL: DIQMTQTTSSLSASLGDRVTISCRASQDISNYLNWYQQKPDGTVKLLIYYTSRLQSGVPSRFSGSGSGTDYCLTISNLEQEDIATYFCQQANTLPLTFGSGTKLELK
B4: M8 mouse monoclonal antibody (anti-canine IL4R) (antibody, V domains shown)
VH: QVQLQQSGPELVKPGALVKISCKASGYTFTSYDINWVKQRPGQGLEWIGWIYPGDGSTKYNEKFKGKATLTADKSSSTAYMQLSSLTSEDSAVYFCARSSFVVWGAGTTVTVSS
VL: DIQMTQSSSYLSVSLGGRVTITCKASDPINNWLAWYQQKPGNAPRLLISGATSLETGVPSRISGSGSGKDYSLSITSLQTEDIATYYCHQYWSIPYTFGGGTKLEIK

Target: T1, Canine IL4R (extracellular domains produced by 293 cells; Examples 16-19) (canine)
T1 sequence (chain, biotinylated): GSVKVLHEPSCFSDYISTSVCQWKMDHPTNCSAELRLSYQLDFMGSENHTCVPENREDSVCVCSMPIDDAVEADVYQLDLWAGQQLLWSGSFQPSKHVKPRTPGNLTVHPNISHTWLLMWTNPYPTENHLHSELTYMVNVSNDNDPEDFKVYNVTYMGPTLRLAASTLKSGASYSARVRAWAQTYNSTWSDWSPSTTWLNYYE
Assay: neutralization (canine IL4-blocking) ELISA

binding, binds:
B1
B2
B3
B4
